Values of other authors as cited in patent publication US3987055A, “Azasteroids compounds and derivatives” (The Board of Regents for the Oklahoma Agricultural & …, priority 1974, dated 1976).
At least one compound was matched to its structure with a doubt left.

Conditions: cited from earlier work

For COc1ccc2c(c1)CC[C@@H]1[C@@H]2CC[C@]2(C)C(=O)NC[C@@H]12 [0-methyl ether of 16-azaestrone], the hypocholesterolemic activity is given as “significant hypocholesterolemic activity”.
